Test results published in doi:10.1101/508887.
No constants are given. Whether binding was seen depends on the method and setting. Binding seen in cells or lysates may run through a third protein. Here binding means that the protein was enriched with, or labelled near, the bait; the list need not be complete. Where a sequence is shown, tags or fusion partners need not be part of it.

Protein sequences, listed by entry. Tags and fused reporters are not part of them.
UniProt P63172: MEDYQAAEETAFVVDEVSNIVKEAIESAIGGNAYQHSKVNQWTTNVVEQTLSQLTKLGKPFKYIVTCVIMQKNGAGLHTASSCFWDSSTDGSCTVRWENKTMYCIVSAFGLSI

Target: T1, KIF1C-BioID-3XFLAG (human) (UniProt O43896)
T1 sequence: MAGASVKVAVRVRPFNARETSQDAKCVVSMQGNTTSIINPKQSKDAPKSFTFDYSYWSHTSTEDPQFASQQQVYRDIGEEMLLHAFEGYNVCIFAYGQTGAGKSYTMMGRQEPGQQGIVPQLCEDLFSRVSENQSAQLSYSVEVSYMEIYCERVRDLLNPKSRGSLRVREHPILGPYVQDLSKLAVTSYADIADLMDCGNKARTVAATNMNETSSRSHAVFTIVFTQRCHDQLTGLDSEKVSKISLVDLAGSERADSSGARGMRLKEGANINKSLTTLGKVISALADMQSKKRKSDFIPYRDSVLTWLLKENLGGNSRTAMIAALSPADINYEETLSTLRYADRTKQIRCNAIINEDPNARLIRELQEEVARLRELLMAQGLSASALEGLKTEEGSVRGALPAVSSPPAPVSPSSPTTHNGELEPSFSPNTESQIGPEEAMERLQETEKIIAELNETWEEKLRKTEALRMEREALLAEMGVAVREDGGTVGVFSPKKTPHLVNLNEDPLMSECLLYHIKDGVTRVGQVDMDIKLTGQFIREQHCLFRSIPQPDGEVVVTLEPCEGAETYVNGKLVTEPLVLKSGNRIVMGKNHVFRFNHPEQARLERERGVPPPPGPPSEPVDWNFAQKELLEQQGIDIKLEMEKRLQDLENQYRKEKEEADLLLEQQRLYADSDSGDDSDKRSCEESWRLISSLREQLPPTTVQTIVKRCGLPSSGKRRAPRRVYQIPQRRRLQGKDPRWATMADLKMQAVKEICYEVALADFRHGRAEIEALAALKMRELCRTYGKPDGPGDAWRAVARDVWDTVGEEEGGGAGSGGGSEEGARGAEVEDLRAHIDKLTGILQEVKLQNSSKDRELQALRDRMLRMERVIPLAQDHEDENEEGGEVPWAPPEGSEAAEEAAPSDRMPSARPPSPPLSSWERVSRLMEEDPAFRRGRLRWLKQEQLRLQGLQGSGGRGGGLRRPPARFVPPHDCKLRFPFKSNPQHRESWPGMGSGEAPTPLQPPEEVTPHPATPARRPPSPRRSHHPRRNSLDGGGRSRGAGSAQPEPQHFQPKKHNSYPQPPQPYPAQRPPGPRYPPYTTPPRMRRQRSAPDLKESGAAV
Test: proximity labelling

binding: binds
Substance: dynein light chain Tctex-Type 1 (DYNLT1) (from UniProt P63172 1-113)
